## Results of single-concentration screens

By UniProt entry, the sequences of proteins in these tests, tags left out.
UniProt P9WPC5, whole entry: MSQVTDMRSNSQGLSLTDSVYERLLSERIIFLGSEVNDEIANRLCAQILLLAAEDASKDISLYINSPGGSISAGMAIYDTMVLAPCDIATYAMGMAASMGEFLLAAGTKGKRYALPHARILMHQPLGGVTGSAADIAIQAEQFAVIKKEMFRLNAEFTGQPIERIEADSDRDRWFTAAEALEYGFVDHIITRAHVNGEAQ
UniProt P9WPC3, whole entry partner: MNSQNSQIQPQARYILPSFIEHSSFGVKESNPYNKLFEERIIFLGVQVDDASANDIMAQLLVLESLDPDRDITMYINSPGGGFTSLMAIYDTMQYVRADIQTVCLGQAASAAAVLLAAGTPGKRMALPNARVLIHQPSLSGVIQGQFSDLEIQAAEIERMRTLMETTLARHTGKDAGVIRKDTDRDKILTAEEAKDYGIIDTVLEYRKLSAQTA
UniProt P9WNZ1, whole entry: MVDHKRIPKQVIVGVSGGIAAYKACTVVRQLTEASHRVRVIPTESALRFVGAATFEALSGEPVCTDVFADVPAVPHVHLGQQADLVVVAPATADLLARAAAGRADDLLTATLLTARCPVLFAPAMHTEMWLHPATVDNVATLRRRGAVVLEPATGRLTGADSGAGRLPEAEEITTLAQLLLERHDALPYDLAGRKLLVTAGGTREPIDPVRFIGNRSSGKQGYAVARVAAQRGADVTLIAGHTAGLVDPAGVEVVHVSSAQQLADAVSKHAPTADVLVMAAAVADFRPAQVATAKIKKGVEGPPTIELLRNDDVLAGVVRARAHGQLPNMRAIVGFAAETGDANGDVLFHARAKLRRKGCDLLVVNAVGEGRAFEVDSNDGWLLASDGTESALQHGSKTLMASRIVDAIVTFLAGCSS

Toxoplasma: 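Assay of Toxoplasma gondii numbers, read through their beta-galactosidase reporter with a colour substrate. Tested at 10 µM. Higher reads as fewer parasites (inferred from which compounds were picked for retests). Of about 67,000 compounds tested this way, about 260 (0.38%) reached 50% or more in at least one test.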
ClpP1P2: 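ClpP1P2, Mycobacterium tuberculosis (UniProt P9WPC5 and UniProt P9WPC3). Protease assay of ClpP1P2, read by the AMC dye that it sets free. Concentration: 50 µM. Direction is inferred from only a few compounds that gave an IC50; most scored high, so higher reads as stronger inhibition. Most other retested compounds had strongly negative values. Of about 69,000 compounds tested this way, about 10 (0.015%) reached 50% or more in at least one test.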
T. brucei: 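Whole-parasite assay of Trypanosoma brucei over 72 hours; the read-out is not stated. Tested at 30 µM. Direction is inferred from retests: higher values go with stronger inhibition. Values scatter widely below zero; nearly all retest evidence comes from the higher of the two concentrations used. Size under these conditions: about 64,000 compounds, about 940 of them at 50% or above in at least one test.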
CoaBC: 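Enzyme assay of CoaBC with a phosphate dye (Biomol Green) read at 650 nm. Target: Coenzyme A biosynthesis protein CoaBC, Mycobacterium tuberculosis (UniProt P9WNZ1). Compounds at 30 µM. Higher reads as stronger inhibition, judged from the few compounds that gave an IC50. Most strong results did not repeat in a second test. About 67,000 compounds were tested under these conditions; 0.06% (about 40) showed 50% or more at least once.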

Each number is a percent effect as filed.
The controls that fix the scale are not given in the record; negative values are as filed.
Compounds were drawn at random from those tested, without regard to their results.
A dash means the value is not listed here; it may have been measured.

structure	Toxoplasma	ClpP1P2	T. brucei	CoaBC
Cc1nnc(N2CCC(CN(C)C(C)C)CC2)c(C#N)c1C	16.83	2.999	-35.57	5.641
O=C(NCc1ccco1)c1ccc(N2CCOCC2)cc1	-31.23	-21.03	-26.66	1.129
CCc1nc(CN2CCCN(C(=O)C(CC)OC)CC2)cs1 (configuration not stated)	3.314	-10.24	-21.42	2.5
Cc1ccc(NC2CCN(C(=O)CCCc3ccccn3)CC2)nn1	12.37	-12.71	-15.76	-15.48
CC(C)NC(=O)[C@H]1C[C@@H]2CN(C(=O)NCc3ccccc3)C[C@H]1O2	-	3.774	-	6.303
NC(=O)CN1C(=O)CO[C@H]2CN(Cc3ccc(C(F)(F)F)cc3)C[C@H]21	-	-8.552	-	5.697
Cc1c(C(C)NC2CSCCSC2)cnn1-c1ccc(F)cc1F (configuration not stated)	26.58	-3.045	12.7	1.613
CC(C#N)CSc1ccccc1NCC(=O)NC(C1CC1)C1CC1 (configuration not stated)	-3.034	8.267	-67.28	1.603
CS(=O)(=O)N(Cc1ccon1)c1cccc(Br)c1	-8.629	-7.416	-20.07	6.696
CCN(Cc1ccncc1)CC1(C)Cc2c(N)nc(N)nc2O1 (configuration not stated)	-5.64	15.02	2.304	-5.519
CC1CN(CC(=O)NCc2cccs2)CCN1c1nccs1 (configuration not stated)	7.575	-11.41	-3.783	3.289
Cc1ccc(-n2cc(C)cn2)c(NC(=O)NC2(C)CCOC2)c1 (configuration not stated)	-0.6384	-1.538	16.94	-4.032
CN(C)[C@@H]1CCN(C(=O)c2ccsc2)[C@H]1Cc1cccnc1.O=C(O)C(F)(F)F.O=C(O)C(F)(F)F	2.07	-	-187.7	-
COCCCNc1c(C#N)c2c(c3nncn13)CN(C)CC2.Cl	0.3247	-	-37.83	-
CC(C(=O)NC1CC1)S(=O)(=O)Cc1nc(Cc2ccccc2)no1 (configuration not stated)	-5.887	2.427	-12.66	-0.6593
CN1CCCc2cc(CNC(=O)c3ccncc3)ccc21	-3.993	6.922	8.977	11.23
Cc1ccc(CN2CC(C(=O)NCC3CC3)C3(CCOCC3)C2)s1 (configuration not stated)	-	-9.786	-	2.447
Cc1ccc(Cl)c(CN2CCC(c3nccn3C(C)C)CC2)c1F	12.76	-23.95	104.1	6.599
CC(C)N1CCC(Cc2cc(-c3cc(F)ccc3C(=O)O)ncn2)C1 (configuration not stated)	5.276	1.598	-19.31	5.085
CC(C)(C)OCCN(Cc1cccc(O)c1)C1CCC(O)CC1 (configuration not stated)	-11.54	-13.01	-22.77	4.701
O=C(O)C(F)(F)F.O=C(O)C(F)(F)F.[H][C@]12C[C@H](C(=O)NCC3CC3)N(C)[C@@]1([H])CN(Cc1ccsc1)C2	5.792	-	-75.19	-
CC(C)NC(=O)c1nnn(-c2ccc(F)cc2)c1C1CC1	-19.86	-17.32	-8.428	2.041
OC(COCc1ccccc1F)CN1CCC(Cn2cccn2)CC1 (configuration not stated)	3.287	-5.908	-11.61	-4.962
Fc1ccc(-c2c[nH]c([C@@H]3COCCN3)n2)cc1	17.33	-4.571	1.418	6.483
CN(C)c1nccc(NCc2cc(-c3ccco3)n[nH]2)n1	-7.197	6.646	8.17	-1.325
N#Cc1cccc(N2CCCC3(C2)CN(c2ncc(F)cn2)CCO3)n1 (configuration not stated)	-	-15.01	-	-
CC(C)C(C)N(Cc1ccccn1)Cc1ccco1 (configuration not stated)	2.206	-10.28	-27.64	-2.163
Cn1ccc(C(=O)N2CCC(Cc3cccc4cccnc34)C2)n1 (configuration not stated)	1.602	2.668	16.58	7.778
COc1ccccc1N1CCN(C(=O)CCn2nnnc2C)CC1(C)C	-10.59	0.4615	2.742	0.4831
O=C(O)C(F)(F)F.[H][C@@]12OCCN(C(=O)COc3ccccc3)[C@@]1([H])CC[C@H]2OCCN(C)C	2.098	-	-	-
Cc1ccc(CN2CCc3c(COC(C)C)nn(C)c3C2)s1.O=C(O)C(F)(F)F	8.062	-	-17.01	-
O=C(NCC1CC1)C1=NOC2(CCN(Cc3ccsc3)C2)C1 (configuration not stated)	-0.2231	-4.258	-10.37	11.2
COc1ccc(-c2cnc(N(C)C)nc2C2CNCCO2)cc1 (configuration not stated)	-	-67.86	-	7.078
CC(=O)N1CCCN(C(=O)C(C)n2cncn2)CC1 (configuration not stated)	-2.618	-12.68	-16.97	-12.3
c1ccc2c(N3CCCCC3Cn3cccn3)ncnc2c1 (configuration not stated)	13.84	-35.08	-	10.34
CCN1CC2(CC1=O)CN(C(C)=O)CCN(C(=O)NC)C2 (configuration not stated)	-17.59	-6.973	-19.97	0.6061
CN1C(=O)C2(CC(=O)Nc3[nH]ncc32)c2cc(Cl)ccc21 (configuration not stated)	-22.87	-22.61	-35.65	3.544

Once more, the final 4:

structure	Toxoplasma	ClpP1P2	T. brucei	CoaBC
CC(=O)N1CCCN(C(=O)C(C)n2cncn2)CC1 (configuration not stated)	-2.618	-12.68	-16.97	-12.3
c1ccc2c(N3CCCCC3Cn3cccn3)ncnc2c1 (configuration not stated)	13.84	-35.08	-	10.34
CCN1CC2(CC1=O)CN(C(C)=O)CCN(C(=O)NC)C2 (configuration not stated)	-17.59	-6.973	-19.97	0.6061
CN1C(=O)C2(CC(=O)Nc3[nH]ncc32)c2cc(Cl)ccc21 (configuration not stated)	-22.87	-22.61	-35.65	3.544

Measurements from “University of Dundee, Small-Polar-MMV Screening Library” (2021), ChEMBL document CHEMBL3988442.